This is an account of results in publication PMC7819943, “Rice protein-binding microarrays: a tool to detect cis-acting elements near promoter regions in rice”.

The other results are listed elsewhere or left out.

For the experiment, the target named is T1, OsSMF1 (Oryza sativa, UniProt Q6ZLB0 1-436).
T1 sequence: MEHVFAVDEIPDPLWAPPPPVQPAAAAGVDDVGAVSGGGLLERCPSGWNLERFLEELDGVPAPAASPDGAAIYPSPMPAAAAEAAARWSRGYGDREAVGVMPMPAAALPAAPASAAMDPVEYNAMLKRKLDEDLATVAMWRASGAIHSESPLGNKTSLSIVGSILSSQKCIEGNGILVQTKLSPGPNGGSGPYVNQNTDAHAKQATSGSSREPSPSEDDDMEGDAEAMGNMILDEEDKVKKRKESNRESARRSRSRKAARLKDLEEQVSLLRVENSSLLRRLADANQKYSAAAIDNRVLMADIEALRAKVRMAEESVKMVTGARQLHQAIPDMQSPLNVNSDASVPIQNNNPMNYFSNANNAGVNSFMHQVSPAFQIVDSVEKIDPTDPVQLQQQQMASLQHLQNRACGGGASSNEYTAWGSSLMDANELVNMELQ
Put plainly: protein-binding microarray (RPBM); PBS, 2% BSA, 51.3 ng/ul salmon testes DNA, 50 uM zinc acetate, 200 nM TF, 25 C, 1 h; high values mean tight binding. The note with it: protein: recombinant; tags: N-terminal polyhistidine and DsRed monomer fusion (pET32a); chain copies: 2; label: CyDye5-dUTP incorporated in the synthesized complementary strand; 3' TTTTT single-stranded linker to array surface; dsDNA, one strand shown. The method in brief: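 Binding signal here means per-feature fluorescence intensity in arbitrary units. The values were read on an Axon 4000B scanner after a custom Agilent array, double-stranded by primer extension with Cy5-dUTP, was incubated with 200 nM protein at 25 °C for 1 h in PBS with 2% BSA, salmon testes DNA and 50 µM zinc acetate, then washed. The proteins were transcription factors with an N-terminal polyhistidine tag and DsRed, expressed in E. coli BL21-CodonPlus and purified on Ni–NTA.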
“GATTGGCTGGAGGGCTCGCCGCCCGCGCCACGTGGGCTCCCGGAGTCACCTAGTGCAG”: the binding signal was 17500 fluorescence intensity (a.u.). “CACGGGCACACGCCATGTGAGGGGACATGAGGTGGGCACGCGGAGTCACCTAGTGCAG”: the binding signal is 3390 fluorescence intensity (a.u.). “GAGGCCCACCTGAAATTTCCACGCGCACGCGCTTTCCCGACGGAGTCACCTAGTGCAG”: the binding signal was 3370 fluorescence intensity (a.u.). In the case of “TCCCTCTCACGCCGCCGCCGCCTCGCCGCTTTCCTCTCTCCGGAGTCACCTAGTGCAG”, the binding signal is 3490 fluorescence intensity (a.u.). With “ATACACACAGGCACACGTCCCACTCACTCGCTGCCTGCTCCGGAGTCACCTAGTGCAG” the figure was 3610 fluorescence intensity (a.u.).

Regarding “AAGTGGTTTCAGTGCTACGTGGCAATCCGGTCTACAATTCCGGAGTCACCTAGTGCAG”, the binding signal was 5900 fluorescence intensity (a.u.). With “CAGGATGTGTATTTCGATTCTTACACGTAATGTATATAAACGGAGTCACCTAGTGCAG” the figure was 3280 fluorescence intensity (a.u.); with “GTCGTAATAAATATGTTATGGGACGAAAGAGTATCTATTACGGAGTCACCTAGTGCAG”, 37700 fluorescence intensity (a.u.). With “CACGCACACCAACTGCTCGCTGCTTATATAGCCTCAGGTCCGGAGTCACCTAGTGCAG” the figure was 22400 fluorescence intensity (a.u.).

Take “ATGTACACACTGATCCAACTAGTTTCACTTACATGTCACTCGGAGTCACCTAGTGCAG”: the binding signal is 3340 fluorescence intensity (a.u.).

As for “TTTATTTCTACCGCCACGTAGGTGCCATGTCAATGTCACGCGGAGTCACCTAGTGCAG”, the binding signal is 14300 fluorescence intensity (a.u.).

On to “GGAGGCCTGGTGCACGTTGAGGGTGAAGGATGGGCAGCGCCGGAGTCACCTAGTGCAG”, for which the binding signal is 3680 fluorescence intensity (a.u.). In the case of “GTGGCCTCTCACTTGAATGATGATCCACCTCATGAGAAGGCGGAGTCACCTAGTGCAG”, the binding signal was 4070 fluorescence intensity (a.u.).

Consider “ATTAGTTTTATTAAATCTTACATTGAATATATTTTGATAACGGAGTCACCTAGTGCAG”, for which the binding signal is 3390 fluorescence intensity (a.u.). With “GCGGCGCCACGGCGACTATTCAGATCGACTCGACTCGACCCGGAGTCACCTAGTGCAG” the figure was 3530 fluorescence intensity (a.u.); with “TCTTGCACTACACATCAGATGATGATTATATGTATTACGTCGGAGTCACCTAGTGCAG”, 4920 fluorescence intensity (a.u.). Consider “GGTGACGTCACTGCTCATTAAACCAACCAAGACCAAGTGTCGGAGTCACCTAGTGCAG”, for which the binding signal was 7860 fluorescence intensity (a.u.). As to “CACTTTAATACTCCCGTCTATCTAGATTCATTGTACTAAGCGGAGTCACCTAGTGCAG”, the binding signal is 3460 fluorescence intensity (a.u.).

For the sequence “CCAAAAGGCAGTATTTAGGTGCCGTACAGTGACTGCACGACGGAGTCACCTAGTGCAG”, the binding signal is 3320 fluorescence intensity (a.u.). As to “CGGCTAAGTCAGCGTGTGACCCACGTGGGACCTATATGTCCGGAGTCACCTAGTGCAG”, the binding signal was 7200 fluorescence intensity (a.u.).

As for “CGGCAGTTGATGACGCGCCGCCGTATTTGGAAGGGAGCTCCGGAGTCACCTAGTGCAG”, the binding signal was 4100 fluorescence intensity (a.u.). Turning to “CTGCATCTACTGCTGCTGACAGCGGATCCTCTCCCTCGCGCGGAGTCACCTAGTGCAG”, the binding signal was 4720 fluorescence intensity (a.u.).

As for “TTTTATCCGATGTGGTGGCTGAGTCAGCGTGGGACCCACACGGAGTCACCTAGTGCAG”, the binding signal was 18400 fluorescence intensity (a.u.).
